From the supplement of paper PMC3682954 come the findings set out here.

The structures appear in SMILES notation. Where “and” joins values, the source holds several entries; their conditions need not be identical. Identical values can stand only once. Counter-ions that a name gives are not always drawn. ± gives the standard deviation of the averaged measurements. Some of the results follow. Many values rest on one well or one pass, so single values are uncertain.

The experiment relates to RAW 264.7. As to the kind of experiment: cell viability (MTT) relative to vehicle control; higher = more viable cells. The settings on record: stimulus: HMGB1 5 ug/ml, 18 h.
Where [1] appears, read: compound concentration: 1 ug/ml.

In the case of `O=C(O)CCC(=O)OC[C@@H](NC(=O)C(Cl)Cl)[C@H](O)c1ccc([N+](=O)[O-])cc1`, the cell viability (commonly a read-out of living cells in per cent, often relative to untreated cells) (compound concentration: 3 uM) is 109%.
Consider `Cc1cccc(/C=C/c2ccccc2)n1`, for which, under “compound concentration: 3 uM”, the cell viability was 114%.
In the case of `COc1ccc2cc(CCC(C)=O)ccc2c1` [Nabumetone], for the setting “compound concentration: 3 uM”, the cell viability worked out at 97.1 ± 6.4%.
Consider `CCCCCC(C)N` (centres undefined), for which the cell viability (compound concentration: 3 uM) worked out at 102%.
On the same count and under the same terms, the same measure for `C#CCN(C)Cc1ccccc1` [Pargyline hydrochloride]: 105 ± 5.4%; for `C#CCN(C)Cc1ccccc1`: 108%.
Still for that read-out and setting: the same measure for `O=c1[nH]c2ccccc2c2ccccc12` [6(5H)-Phenanthridinone]: 108%.
The same measure, in the same setting: for `Oc1c(I)cc(I)c2cccnc12` the value was 104%.
Take `O=C(CCCN1CC=C(n2c(=O)[nH]c3ccccc32)CC1)c1ccc(F)cc1` [Droperidol]: where the note is “compound concentration: 3 uM”, the cell viability stood at 105 ± 11%.
Same read-out and setting: for `O=C(CCCN1CC=C(n2c(=O)[nH]c3ccccc32)CC1)c1ccc(F)cc1` the value was 102 ± 7.9%; for `CCN(CC)CCNC(=O)c1cc(S(C)(=O)=O)ccc1OC` [Tiapride hydrochloride], 109 ± 9%.
The same measure, in the same setting: for `CCN(CC)CCNC(=O)c1cc(S(C)(=O)=O)ccc1OC` the value was 103%; for `CC(C)N1CCN(c2ccc(OCC3COC(Cn4cncn4)(c4ccc(Cl)cc4Cl)O3)cc2)CC1` (centres undefined) [Terconazole], 96%; for `CN1C2CCCC1CC(NC(=O)c1nn(C)c3ccccc13)C2` (centres undefined), 94%.
Still for that read-out and setting: for `CN1C2CCCC1CC(NC(=O)c1nn(C)c3ccccc13)C2` (centres undefined) [Granisetron] the value was 111 ± 18%.
With `CN1C2CCCC1CC(NC(=O)c1nn(C)c3ccccc13)C2` (centres undefined) [Granisetron hydrochloride], the cell viability (compound concentration: 3 uM) was 115%.
The same measure, in the same setting: the same measure for `CCN(CC)CC#CCOC(=O)C(O)(c1ccccc1)C1CCCCC1` (centres undefined) [Oxybutynin Chloride]: 103%.
Same read-out and setting: the same measure for `CCN(CC)CC#CCOC(=O)C(O)(c1ccccc1)C1CCCCC1` (centres undefined) [Oxybutynin chloride]: 103%.
Turning to `CCN(CC)CC#CCOC(=O)C(O)(c1ccccc1)C1CCCCC1` (centres undefined), under “compound concentration: 3 uM”, the cell viability came out at 105%.
Same read-out and setting: for `Cc1ncc([N+](=O)[O-])n1CCO` the value was 101 ± 8.8%; for `Cc1ncc([N+](=O)[O-])n1CCO` [Metronidazole], 98.2 ± 6.8%.
Consider `OC(CCN1CCCCC1)(c1ccccc1)C1CC2C=CC1C2` (centres undefined) [Biperiden hydrochloride], for which, under “compound concentration: 3 uM”, the cell viability amounted to 87.9 ± 3%.
For `OC(CCN1CCCCC1)(c1ccccc1)C1CC2C=CC1C2` (centres undefined), the cell viability (compound concentration: 3 uM) was found to be 105%.
For the compound `CCN(Cc1ccncc1)C(=O)C(CO)c1ccccc1` (centres undefined), under “compound concentration: 3 uM”, the cell viability was determined as 103%.
As for `CCN(Cc1ccncc1)C(=O)C(CO)c1ccccc1` (centres undefined) [Tropicamide], under “compound concentration: 3 uM”, the cell viability was determined as 107 ± 12%.
Still for that read-out and setting: for `CN(C)CCOC1=Cc2ccccc2Sc2ccc(Cl)cc21` [Zotepine] the value was 118%; for `O=C(NCCNCC(O)COc1ccc(O)cc1)N1CCOCC1` (centres undefined) [Xamoterol], 107%; for `O=C(NCCNCC(O)COc1ccc(O)cc1)N1CCOCC1` (centres undefined) [Xamoterol hemifumarate], 101%.
On the same count and under the same terms, for `N=C(N)c1ccccc1` [Benzamidine hydrochloride] the value was 91.8%.
As for `COCc1c(C(C)C)nc(C(C)C)c(/C=C/[C@@H](O)C[C@@H](O)CC(=O)O)c1-c1ccc(F)cc1`, the cell viability (compound concentration: 3 uM) is 100%.
On the same count and under the same terms, the same measure for `COCc1c(C(C)C)nc(C(C)C)c(/C=C/[C@@H](O)C[C@@H](O)CC(=O)O)c1-c1ccc(F)cc1` [Cerivastatin]: 121%.
As to `COc1ccc(C(=O)NCc2cccnc2)cc1C(=O)NCc1cccnc1` [Picotamide], where the note is “compound concentration: 3 uM”, the cell viability was found to be 98.4 ± 6.5%.
Same read-out and setting: the same measure for `COc1ccc(C(=O)NCc2cccnc2)cc1C(=O)NCc1cccnc1` [Picotamide monohydrate]: 91.2%; for `CC(C)c1cccc(C(C)C)c1N1C(=O)c2ccc(O)cc2C1=O`: 114%; for `O=C([O-])c1ccccc1O.[Na+]`: 100%.
Regarding `COc1ccc2[nH]cc(CCNC(C)=O)c2c1` [Melatonin], the cell viability is, setting by setting: under setting [1], 93%; (compound concentration: 3 uM) 107 ± 8.2%.
Regarding `CCCCC/C=C\C[C@@H](O)/C=C/c1cccc(C[C@@H](O)CCCCO)n1`, where the note is “compound concentration: 3 uM”, the cell viability came to 117%.
As for `NC[C@H]1O[C@H](O[C@H]2[C@H](O[C@@H]3O[C@H](CO)[C@@H](O)[C@H]3O)[C@@H](O)[C@H](N)C[C@@H]2N)[C@H](N)[C@@H](O)[C@@H]1O`, the cell viability (compound concentration: 3 uM) came to 112%.
Same read-out and setting: the same measure for `NC[C@H]1O[C@H](O[C@H]2[C@H](O[C@@H]3O[C@H](CO)[C@@H](O)[C@H]3O)[C@@H](O)[C@H](N)C[C@@H]2N)[C@H](N)[C@@H](O)[C@@H]1O` [Ribostamycin sulfate salt]: 118%; for `Cc1ccc(C(=O)c2cc(O)c(O)c([N+](=O)[O-])c2)cc1` [Tolcapone]: 102%.
Same read-out and setting: the same measure for `O=Nc1c(-c2c(O)[nH]c3ccccc23)[nH]c2ccccc12` [Indirubin-3'-oxime]: 103%; for `C=CC[C@@H]1/C=C(\C)C[C@H](C)C[C@H](OC)[C@H]2O[C@@](O)(C(=O)C(=O)N3CCCC[C@H]3C(=O)O[C@H](/C(C)=C/[C@@H]3CC[C@@H](O)[C@H](OC)C3)[C@H](C)[C@@H](O)CC1=O)[C@H](C)C[C@@H]2OC`: 111 ± 6.7%; for `C[C@]12CCC(=O)C=C1CC[C@@H]1[C@@H]2[C@@H](O)C[C@@]2(C)[C@H]1CC[C@]2(O)C(=O)CO` [Hydrocortisone]: 104 ± 9.1%.
For the compound `C[C@]12CCC(=O)C=C1CC[C@@H]1[C@@H]2[C@@H](O)C[C@@]2(C)[C@H]1CC[C@]2(O)C(=O)CO`, the cell viability (compound concentration: 3 uM) worked out at 115%.
The same measure, in the same setting: for `C[C@]12CCC(=O)C=C1CC[C@@H]1[C@@H]2[C@@H](O)C[C@@]2(C)[C@H]1CC[C@]2(O)C(=O)CO` [Hydrocortisone base] the value was 115%.
For `C[C@]12CCC(=O)C=C1CC[C@@H]1[C@@H]2[C@@H](O)C[C@@]2(C)[C@H]1CC[C@]2(O)C(=O)CO` [Hydrocortisone, 98%], the cell viability under setting [1] turned out to be 107%.
For the compound `CCOC(=O)C1=C[C@@H](OC(CC)CC)[C@H](NC(C)=O)[C@@H](N)C1` [Oseltamivir], the cell viability (compound concentration: 3 uM) is 100%.
`CNCCCC1c2ccccc2C=Cc2ccccc21` [Protriptyline hydrochloride]: the cell viability (compound concentration: 3 uM) turned out to be 94.7 ± 11%.
Take `CNCCCC1c2ccccc2C=Cc2ccccc21`: under “compound concentration: 3 uM”, the cell viability was 95.8%.
Still for that read-out and setting: for `CCCCCCC[N+](CC)(CC)CCCCc1ccc(Cl)cc1` [Clofilium tosylate] the value was 81.2%; for `O=[N+]([O-])c1ccc(-c2nc(-c3ccc(F)cc3)c(-c3ccncc3)[nH]2)cc1`, 93.5%.
On the same count and under the same terms, for `O=c1cc(-c2ccccc2F)[nH]c2cc3c(cc12)OCO3` [CHM-1 hydrate] the value was 76.1%; for `Oc1ncnc2[nH]ncc12`, 104%.
Regarding `Oc1ncnc2[nH]ncc12` [Allopurinol], the cell viability (compound concentration: 3 uM) came out at 97 ± 16%.
The same measure, in the same setting: the same measure for `S=C(S)OC1CC2CC1C1CCCC21` [D-609 potassium]: 117%.
In the case of `O=C(CCc1ccc(O)cc1)c1c(O)cc(O)cc1O[C@@H]1O[C@H](CO)[C@@H](O)[C@H](O)[C@H]1O` [Phloridzin dihydrate], the cell viability under setting [1] was determined as 90%.
Consider `CC(=O)C1=C(O)C=C2Oc3c(C(C)=O)c(O)c(C)c(O)c3[C@@]2(C)C1=O` [(+)-Usnic acid], for which the cell viability under setting [1] amounted to 82.1%.
For `CN(N=O)C(=O)N[C@H]1C(O)O[C@H](CO)[C@@H](O)[C@@H]1O` (mixture of isomers), the cell viability (compound concentration: 3 uM) was found to be 96.99 ± 0.085%.
For the compound `CO/N=C(\C(=O)N[C@@H]1C(=O)N2C(C(=O)OCOC(=O)C(C)(C)C)=C(/C=C\c3scnc3C)CS[C@H]12)c1csc(N)n1`, the cell viability (compound concentration: 3 uM) is 104%.
Regarding `CC(=O)Oc1c(C)c(C)c2c(c1C)CCC(C)(CCCC(C)CCCC(C)CCCC(C)C)O2` (racemic) [DL-a-Tocopherol acetate], the cell viability under setting [1] amounted to 115%.
Consider `Cc1sc(N)c(C(=O)c2cccc(C(F)(F)F)c2)c1C`, for which the cell viability (compound concentration: 3 uM) is 104%.
Still for that read-out and setting: the same measure for `O=C(Nc1ccccc1)c1cc([N+](=O)[O-])ccc1Cl`: 102%; for `C[N+]1(CCCCC[N+]2(C)CCCC2)CCCC1` [Pentolinium bitartrate]: 93.3%; for `C[N+]1(CCCCC[N+]2(C)CCCC2)CCCC1` [Pentolinium di[L(+)-tartrate]]: 102%.
On the same count and under the same terms, for `CCCc1cc(=O)[nH]c(=S)[nH]1` the value was 102%; for `CCCc1cc(=O)[nH]c(=S)[nH]1` [Propylthiouracil], 94.8%; for `COc1ccc(CCN(C)CCCC(C#N)(c2ccc(OC)c(OC)c2)C(C)C)cc1OC` (centres undefined) [Verapamil hydrochloride], 106%.
Same read-out and setting: the same measure for `COc1ccc(CCN(C)CCCC(C#N)(c2ccc(OC)c(OC)c2)C(C)C)cc1OC` (centres undefined) [Verapamil]: 115%.
Turning to `COc1ccc(CCN(C)CCCC(C#N)(c2ccc(OC)c(OC)c2)C(C)C)cc1OC` (centres undefined), the cell viability under setting [1] came to 96.5%; the cell viability (compound concentration: 3 uM) was 96.4% and 113%.
For the compound `Cc1onc(-c2ccccc2)c1-c1ccc(S(N)(=O)=O)cc1`, the cell viability (compound concentration: 3 uM) was 92.7%.
Turning to `O=C(O)c1cc(O)c2c(c1)C(=O)c1cccc(O)c1C2=O` [Rhein], under setting [1], the cell viability turned out to be 116%.
For `CN1CCc2c(c3ccccc3n2Cc2ccccc2)C1`, where the note is “compound concentration: 3 uM”, the cell viability is 110%.
For the compound `Fc1ccc(C(c2ccc(F)cc2)N2CCN(C/C=C/c3ccccc3)CC2)cc1` [Flunarizine 2HCl], the cell viability (compound concentration: 3 uM) turned out to be 115%.
With `Fc1ccc(C(c2ccc(F)cc2)N2CCN(C/C=C/c3ccccc3)CC2)cc1`, the cell viability (compound concentration: 3 uM) is 100%.
Still for that read-out and setting: the same measure for `Fc1ccc(C(c2ccc(F)cc2)N2CCN(C/C=C/c3ccccc3)CC2)cc1` [Flunarizine dihydrochloride]: 103 ± 2.9%; for `Cn1c(NCCN(CCO)CCCc2ccc([N+](=O)[O-])cc2)cc(=O)n(C)c1=O`: 96.7%; for `Cn1c(NCCN(CCO)CCCc2ccc([N+](=O)[O-])cc2)cc(=O)n(C)c1=O` [Nifekalant]: 106%.
`COc1ccc2c(CN3CCOCC3)cc(=O)oc2c1`: the cell viability under setting [1] came to 103%.
As to `O=C(OC[C@H]1O[C@@H](OC(=O)c2cc(O)c(O)c(OC(=O)c3cc(O)c(O)c(O)c3)c2)[C@H](OC(=O)c2cc(O)c(O)c(OC(=O)c3cc(O)c(O)c(O)c3)c2)[C@@H](OC(=O)c2cc(O)c(O)c(OC(=O)c3cc(O)c(O)c(O)c3)c2)[C@@H]1OC(=O)c1cc(O)c(O)c(OC(=O)c2cc(O)c(O)c(O)c2)c1)c1cc(O)c(O)c(OC(=O)c2cc(O)c(O)c(O)c2)c1`, the cell viability (compound concentration: 3 uM) is 109 ± 13%.
Same read-out and setting: for `N=C(N)c1ccc(OCCCCCOc2ccc(C(=N)N)cc2)cc1` [Pentamidine isethionate] the value was 93.3 ± 28%.
Same read-out and setting: the same measure for `N=C(N)c1ccc(OCCCCCOc2ccc(C(=N)N)cc2)cc1`: 114%; for `N=C(N)c1ccc(OCCCCCOc2ccc(C(=N)N)cc2)cc1` [Pentamidine]: 135%.
